# Source: PubChem BioAssay AID445 (National Center for Advancing Translational Sciences (NCATS), 2006)
# The other results are listed elsewhere or left out. These are further read-outs of the screen, such as a control signal, another cell line or another target. No call is given for them. The list favours compounds with an active or inconclusive main result. Potencies come from curve fits of mixed quality, noted in brackets.
# Assay: IkB Signaling
# Details: ABC-DLBCL IkBa-CBG/CBR dual luciferase ratio (green luciferase fused to IkBa over red control in OCI-Ly3 lymphoma cells), 4 h
# Outline: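 In this assay, an IκBα–CBG68 fusion accumulates when IKK-driven degradation is blocked; native CBR normalizes for cell number. OCI-Ly3 cells were treated 4 h with compound and doxycycline, then green and red light read after Chroma-Glo addition.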
# [1] = measured here: control luc red channel unless noted
structure (smiles),measurement,setting,value
Cc1ccc(-c2onc(C)c2C)cc1S(=O)(=O)N1CCN(c2ccccc2F)CC1,AC50,measured here: IkB-luc green channel,"3.98 µM [rising, partial curve]"
same,AC50,measured here: control luc red channel,"39.8 µM [falling, single point]"
COc1cc(OC)c(NC(=O)Nc2ccc3c(c2)N(C)C(=O)c2ccccc2S3)cc1Cl,AC50,[1],"7.94 µM [falling, partial curve]"
COc1cc(OC)cc(-n2c(=O)c3sccc3n(Cc3ccc(F)cc3)c2=O)c1,AC50,[1],"39.8 µM [rising, partial curve]"
CCn1c2ccccc2c2cc(CN3CCN(Cc4cccc(Cl)c4)CC3)ccc21,AC50,[1],"25.1 µM [falling, single point]"
COC(=O)c1ccccc1NC(=O)CCCn1nc(C)c2c(C)n(-c3ccccc3)nc2c1=O,AC50,[1],"10 µM [falling, single point]"
Cc1ccc(CNC(=O)c2cc(-c3ccc(C)c(C)c3)nc3ccccc23)cc1,AC50,[1],"6.31 µM [falling, partial curve]"
Cc1ccc(Cl)cc1N1CCN(c2nc3ccccc3c3nc(-c4cccnc4)nn23)CC1,AC50,[1],"0.00631 µM [rising, full curve, poor fit]"
CCCOc1ccc(Oc2nc(NC)nc(N3CCOCC3)n2)nn1,AC50,[1],"39.8 µM [falling, partial curve, poor fit]"
CCCCc1ccc(NC(=O)CSc2nc3ccccc3nc2N2CCCCC2)cc1,AC50,[1],"39.8 µM [falling, single point]"
O=C(CSc1nc2ccccc2c(=O)n1CC1CCCO1)N1CCN(c2ccccc2)CC1 (configuration not stated),AC50,[1],"10 µM [falling, partial curve]"
CCOc1ccc(NC(=O)C(CC)n2nc(C)c3c(C)n(-c4ccccc4)nc3c2=O)cc1 (configuration not stated),AC50,[1],"31.6 µM [falling, single point]"
Cn1c(=O)oc2cc(S(=O)(=O)NCC3CCCO3)ccc21 (configuration not stated),AC50,[1],"2.51 µM [falling, full curve]"
Cc1ccc(NC(=O)CN2C(=O)CC(c3ccco3)Sc3ccccc32)cc1Cl (configuration not stated),AC50,[1],"0.158 µM [falling, full curve]"
CCOC(=O)C1CCN(C(c2cc3ccc(C)cc3[nH]c2=O)c2nnnn2C2CCCCC2)CC1 (configuration not stated),AC50,[1],"25.1 µM [falling, partial curve]"
C=CCn1c(SCC(=O)c2cc(C)n(C(C)COC)c2C)nc2sc(C)c(C)c2c1=O (configuration not stated),AC50,[1],"10 µM [falling, partial curve]"
COc1cccc(CN2C(=O)C3(SCC(=O)N3c3ccc(C)c(Cl)c3)c3ccccc32)c1 (configuration not stated),AC50,[1],"7.94 µM [falling, full curve]"
CC1Cc2cc(S(=O)(=O)CCC(=O)Nc3ccccc3F)ccc2N1C(=O)C1CC1 (configuration not stated),AC50,[1],"10 µM [rising, partial curve]"
CC(=O)c1c(C)[nH]c(C(=O)OCc2nnc(-c3ccccc3)o2)c1C,AC50,[1],"20 µM [falling, partial curve]"
CC[C@@]1(O)C(=O)OCc2c1cc1n(c2=O)Cc2cc3c(CN(C)C)c(O)ccc3nc2-1,AC50,[1],"0.398 µM [falling, full curve]"
CCCCC(=O)N1CCc2cc(OC)c(OC)cc2C1COc1ccc(C(=O)OCC)cc1 (configuration not stated),AC50,[1],"39.8 µM [falling, single point]"
COc1ccc(N=Cc2c(O)[nH]c3ccccc23)cc1OC,AC50,[1],"6.31 µM [falling, partial curve]"
COc1ccc(-c2nc3n(n2)C(c2ccccc2OC)C(C(=O)Nc2cccnc2)=C(C)N3)cc1 (configuration not stated),AC50,[1],"25.1 µM [falling, partial curve]"
CCOc1ccccc1NC(=O)c1c2c(nc3ccccc13)C(=O)N(C1CCCCC1)C2,AC50,[1],"15.8 µM [falling, partial curve]"
O=C(C1CCC(CNS(=O)(=O)c2ccc(Br)s2)CC1)N1CCN(c2ccc(F)cc2)CC1 (configuration not stated),AC50,[1],"1.58 µM [falling, partial curve]"
COc1ccc(CNC(=O)c2ccc3c(c2)nc2n3CCCCC2)cc1,AC50,[1],"15.8 µM [falling, partial curve]"
Cc1ccc(NS(=O)(=O)c2ccc3c(c2)N(C)C(=O)CC(=O)N3C)cc1Cl,AC50,[1],"15.8 µM [falling, partial curve]"
CCCOc1c(OC)cccc1C1CC(=O)Nc2cc3c(cc21)OCCO3 (configuration not stated),AC50,[1],"3.16 µM [falling, full curve]"
COc1ccccc1C1C(C(=O)c2cc3ccccc3o2)=C(O)C(=O)N1CCN(C)C (configuration not stated),AC50,[1],"12.6 µM [falling, partial curve]"
N#C/C(=C\c1ccc(OCc2ccc(Cl)cc2Cl)cc1)c1nc2ccccc2[nH]1,AC50,[1],"6.31 µM [falling, partial curve]"
C=CCn1c(SCC(=O)Nc2cccc(C(=O)OC)c2)nnc1C(C)NC(=O)c1cccs1 (configuration not stated),AC50,[1],"15.8 µM [falling, partial curve]"
O=C(Nc1cccc(Br)c1)N1CCN2CCCCC2C1 (configuration not stated),AC50,[1],"12.6 µM [falling, partial curve]"

# Retrieved one by one from above:
structure (smiles),measurement,setting,value
COc1cc(OC)cc(-n2c(=O)c3sccc3n(Cc3ccc(F)cc3)c2=O)c1,AC50,[1],"39.8 µM [rising, partial curve]"
Cc1ccc(NS(=O)(=O)c2ccc3c(c2)N(C)C(=O)CC(=O)N3C)cc1Cl,AC50,[1],"15.8 µM [falling, partial curve]"
